Among the data in paper PMC4130541 are binding values, retold here.

For one assay, the target named is T1, Dga1-PtA (yeast) (UniProt Q08650).
T1 sequence: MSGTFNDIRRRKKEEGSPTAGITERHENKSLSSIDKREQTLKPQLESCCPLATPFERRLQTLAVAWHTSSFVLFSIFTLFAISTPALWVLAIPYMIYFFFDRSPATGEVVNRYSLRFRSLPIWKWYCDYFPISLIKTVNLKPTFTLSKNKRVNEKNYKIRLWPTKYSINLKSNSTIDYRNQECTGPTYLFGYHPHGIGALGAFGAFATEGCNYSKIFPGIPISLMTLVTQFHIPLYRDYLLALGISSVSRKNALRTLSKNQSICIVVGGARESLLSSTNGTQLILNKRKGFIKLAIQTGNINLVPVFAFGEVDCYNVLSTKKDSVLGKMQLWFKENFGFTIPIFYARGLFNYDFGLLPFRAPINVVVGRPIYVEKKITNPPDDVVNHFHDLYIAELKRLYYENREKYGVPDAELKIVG
Nature of the assay: co-IP; PtA fusion captured on IgG sepharose from cleared yeast lysates (150 mM KCl, 20 mM Tris HCl pH 8.0, 5 mM MgCl2, 1% Triton X-100), 2 h at 4°C; anti-HA immunoblot; cells growing exponentially or treated with rapamycin (200 ng/ml); Spo7-PtA pull-down also in cells without Nem1. For orientation: In western blotting, separated proteins are transferred to a membrane and probed.

For a further assay, the target named is T2, Spo7-PtA (yeast) (UniProt P18410).
T2 sequence: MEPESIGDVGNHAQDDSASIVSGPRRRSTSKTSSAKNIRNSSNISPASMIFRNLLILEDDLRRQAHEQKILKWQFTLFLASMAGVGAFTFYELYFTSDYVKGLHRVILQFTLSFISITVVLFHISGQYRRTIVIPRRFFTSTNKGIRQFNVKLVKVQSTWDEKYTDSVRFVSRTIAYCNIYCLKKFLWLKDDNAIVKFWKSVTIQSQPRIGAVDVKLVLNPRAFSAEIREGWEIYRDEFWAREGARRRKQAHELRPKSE
The assay is described as above.

The target in the next assay is T3, Pah1-Cub-LexA (yeast) (UniProt P32567).
T3 sequence: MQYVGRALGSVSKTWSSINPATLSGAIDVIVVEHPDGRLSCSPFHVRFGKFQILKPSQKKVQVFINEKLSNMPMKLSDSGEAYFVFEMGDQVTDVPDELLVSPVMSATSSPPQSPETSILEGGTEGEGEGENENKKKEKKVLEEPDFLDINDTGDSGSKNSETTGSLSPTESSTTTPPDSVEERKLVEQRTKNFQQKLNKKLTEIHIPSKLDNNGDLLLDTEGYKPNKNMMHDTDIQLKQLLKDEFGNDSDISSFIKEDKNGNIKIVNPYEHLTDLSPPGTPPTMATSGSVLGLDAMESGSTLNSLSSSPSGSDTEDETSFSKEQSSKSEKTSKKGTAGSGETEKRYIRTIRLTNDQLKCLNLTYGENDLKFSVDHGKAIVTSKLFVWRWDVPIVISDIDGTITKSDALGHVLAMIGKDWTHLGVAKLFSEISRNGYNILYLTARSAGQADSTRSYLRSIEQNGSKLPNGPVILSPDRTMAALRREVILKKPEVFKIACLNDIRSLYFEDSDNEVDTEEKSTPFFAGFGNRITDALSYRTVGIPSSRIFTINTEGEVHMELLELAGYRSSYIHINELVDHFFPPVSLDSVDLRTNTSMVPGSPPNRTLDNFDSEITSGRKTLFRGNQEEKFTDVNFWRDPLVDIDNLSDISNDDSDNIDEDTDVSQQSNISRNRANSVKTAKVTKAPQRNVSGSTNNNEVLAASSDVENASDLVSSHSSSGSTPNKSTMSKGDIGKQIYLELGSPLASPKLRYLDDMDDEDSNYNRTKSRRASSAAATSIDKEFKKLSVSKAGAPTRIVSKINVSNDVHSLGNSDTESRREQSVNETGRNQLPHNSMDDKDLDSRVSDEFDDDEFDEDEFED
As to the kind of experiment: two-hybrid; split-ubiquitin membrane-based yeast two-hybrid in strain NMY51; NubG fusions against Cub-LexA fusions; growth on plates lacking adenine and β-galactosidase activity (Miller units), exponentially growing cells.

For the next assay, the target named is T4, Nem1-Cub-LexA (yeast) (UniProt P38757).
T4 sequence: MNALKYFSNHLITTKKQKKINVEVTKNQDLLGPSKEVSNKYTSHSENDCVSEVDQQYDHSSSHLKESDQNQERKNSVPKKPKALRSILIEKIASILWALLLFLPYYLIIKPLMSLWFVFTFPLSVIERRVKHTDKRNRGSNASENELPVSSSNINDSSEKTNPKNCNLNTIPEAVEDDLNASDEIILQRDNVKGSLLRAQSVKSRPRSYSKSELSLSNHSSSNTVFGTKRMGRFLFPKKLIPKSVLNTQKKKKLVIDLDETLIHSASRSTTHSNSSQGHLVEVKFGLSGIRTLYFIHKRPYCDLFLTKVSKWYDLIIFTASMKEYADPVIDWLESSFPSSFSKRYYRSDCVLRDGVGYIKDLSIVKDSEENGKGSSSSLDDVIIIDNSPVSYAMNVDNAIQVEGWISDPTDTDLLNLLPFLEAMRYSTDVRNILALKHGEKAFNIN
The assay is described as above.

The next assay has as its target T5, Spo7-Cub-LexA (yeast) (UniProt P18410).
T5 sequence: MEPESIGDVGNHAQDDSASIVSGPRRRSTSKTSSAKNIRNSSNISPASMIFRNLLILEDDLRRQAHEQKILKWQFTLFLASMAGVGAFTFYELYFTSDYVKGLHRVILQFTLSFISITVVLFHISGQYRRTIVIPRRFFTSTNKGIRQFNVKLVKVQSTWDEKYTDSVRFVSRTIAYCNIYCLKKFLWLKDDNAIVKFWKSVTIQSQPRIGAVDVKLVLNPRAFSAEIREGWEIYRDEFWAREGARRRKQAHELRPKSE
The description is as above.

These are yes or no findings as the source states them, for the method shown. For some of these results: Binding seen in cells or lysates may run through a third protein. Some entries that bind do so weakly or less than the wild type. For some of these results: Sequences can lack the tags named with a protein.

B1: Pah1-HA3 (enzyme, UniProt P32567 1-862)
chain: MQYVGRALGSVSKTWSSINPATLSGAIDVIVVEHPDGRLSCSPFHVRFGKFQILKPSQKKVQVFINEKLSNMPMKLSDSGEAYFVFEMGDQVTDVPDELLVSPVMSATSSPPQSPETSILEGGTEGEGEGENENKKKEKKVLEEPDFLDINDTGDSGSKNSETTGSLSPTESSTTTPPDSVEERKLVEQRTKNFQQKLNKKLTEIHIPSKLDNNGDLLLDTEGYKPNKNMMHDTDIQLKQLLKDEFGNDSDISSFIKEDKNGNIKIVNPYEHLTDLSPPGTPPTMATSGSVLGLDAMESGSTLNSLSSSPSGSDTEDETSFSKEQSSKSEKTSKKGTAGSGETEKRYIRTIRLTNDQLKCLNLTYGENDLKFSVDHGKAIVTSKLFVWRWDVPIVISDIDGTITKSDALGHVLAMIGKDWTHLGVAKLFSEISRNGYNILYLTARSAGQADSTRSYLRSIEQNGSKLPNGPVILSPDRTMAALRREVILKKPEVFKIACLNDIRSLYFEDSDNEVDTEEKSTPFFAGFGNRITDALSYRTVGIPSSRIFTINTEGEVHMELLELAGYRSSYIHINELVDHFFPPVSLDSVDLRTNTSMVPGSPPNRTLDNFDSEITSGRKTLFRGNQEEKFTDVNFWRDPLVDIDNLSDISNDDSDNIDEDTDVSQQSNISRNRANSVKTAKVTKAPQRNVSGSTNNNEVLAASSDVENASDLVSSHSSSGSTPNKSTMSKGDIGKQIYLELGSPLASPKLRYLDDMDDEDSNYNRTKSRRASSAAATSIDKEFKKLSVSKAGAPTRIVSKINVSNDVHSLGNSDTESRREQSVNETGRNQLPHNSMDDKDLDSRVSDEFDDDEFDEDEFED
As to B1, the figures for the binding result with Dga1-PtA (yeast) and with Spo7-PtA (yeast) were “no binding” and “binds”, respectively.

B2: NubG-HA-Spo7 (protein, UniProt P18410 1-259)
chain: MEPESIGDVGNHAQDDSASIVSGPRRRSTSKTSSAKNIRNSSNISPASMIFRNLLILEDDLRRQAHEQKILKWQFTLFLASMAGVGAFTFYELYFTSDYVKGLHRVILQFTLSFISITVVLFHISGQYRRTIVIPRRFFTSTNKGIRQFNVKLVKVQSTWDEKYTDSVRFVSRTIAYCNIYCLKKFLWLKDDNAIVKFWKSVTIQSQPRIGAVDVKLVLNPRAFSAEIREGWEIYRDEFWAREGARRRKQAHELRPKSE
With B2, the binding entry with Pah1-Cub-LexA (yeast) and with Nem1-Cub-LexA (yeast) was “binds” in each case.

B3: Nem1-HA3 (enzyme, UniProt P38757 1-446)
chain: MNALKYFSNHLITTKKQKKINVEVTKNQDLLGPSKEVSNKYTSHSENDCVSEVDQQYDHSSSHLKESDQNQERKNSVPKKPKALRSILIEKIASILWALLLFLPYYLIIKPLMSLWFVFTFPLSVIERRVKHTDKRNRGSNASENELPVSSSNINDSSEKTNPKNCNLNTIPEAVEDDLNASDEIILQRDNVKGSLLRAQSVKSRPRSYSKSELSLSNHSSSNTVFGTKRMGRFLFPKKLIPKSVLNTQKKKKLVIDLDETLIHSASRSTTHSNSSQGHLVEVKFGLSGIRTLYFIHKRPYCDLFLTKVSKWYDLIIFTASMKEYADPVIDWLESSFPSSFSKRYYRSDCVLRDGVGYIKDLSIVKDSEENGKGSSSSLDDVIIIDNSPVSYAMNVDNAIQVEGWISDPTDTDLLNLLPFLEAMRYSTDVRNILALKHGEKAFNIN
As to B3, the binding entry with Spo7-PtA (yeast) is reported as “binds”.

B4: NubG-HA-Nem1 (enzyme, UniProt P38757 1-446)
chain: MNALKYFSNHLITTKKQKKINVEVTKNQDLLGPSKEVSNKYTSHSENDCVSEVDQQYDHSSSHLKESDQNQERKNSVPKKPKALRSILIEKIASILWALLLFLPYYLIIKPLMSLWFVFTFPLSVIERRVKHTDKRNRGSNASENELPVSSSNINDSSEKTNPKNCNLNTIPEAVEDDLNASDEIILQRDNVKGSLLRAQSVKSRPRSYSKSELSLSNHSSSNTVFGTKRMGRFLFPKKLIPKSVLNTQKKKKLVIDLDETLIHSASRSTTHSNSSQGHLVEVKFGLSGIRTLYFIHKRPYCDLFLTKVSKWYDLIIFTASMKEYADPVIDWLESSFPSSFSKRYYRSDCVLRDGVGYIKDLSIVKDSEENGKGSSSSLDDVIIIDNSPVSYAMNVDNAIQVEGWISDPTDTDLLNLLPFLEAMRYSTDVRNILALKHGEKAFNIN
As to B4, the figures for the binding result with Spo7-Cub-LexA (yeast) and with Pah1-Cub-LexA (yeast) were “binds” and “no binding”, respectively.
